The target in assay [1] is T1, mouse CD3ε/δ heterodimer (mouse) (UniProt P22646+P04235).
T1 sequence 1: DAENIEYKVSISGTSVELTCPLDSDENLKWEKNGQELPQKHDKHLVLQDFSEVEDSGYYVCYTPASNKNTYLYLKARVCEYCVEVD
T1 sequence 2: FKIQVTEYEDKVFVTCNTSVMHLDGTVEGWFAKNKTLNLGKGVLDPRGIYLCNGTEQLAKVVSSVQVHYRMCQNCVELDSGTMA
Put plainly: SPR; CD3 heterodimers amine-coupled at pH 4 to CM5 chips (mouse CD3ε/δ 3,900 RU, human CD3ε/δ 9,800 RU, human CD3ε/γ 8,900 RU); gal 4 as analyte, 2-fold dilutions 16 to 0.5 μmol/L, 120 s association, 120 s dissociation; 25°C; 10 mmol/L phosphate pH 7.4, 140 mmol/L NaCl, 0.27 mmol/L KCl, 0.05% Tween 20; Biacore T-200; both purified. Background: Surface plasmon resonance follows binding to a sensor surface in real time, without labels.

For assay [2], the target named is T2, human recombinant CD3ε/γ heterodimer (human, UniProt P07766 23-126; P09693 23-116).
T2 chain 1: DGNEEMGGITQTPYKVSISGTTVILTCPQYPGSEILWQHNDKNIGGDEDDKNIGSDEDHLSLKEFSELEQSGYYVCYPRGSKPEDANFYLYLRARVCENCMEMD
T2 chain 2: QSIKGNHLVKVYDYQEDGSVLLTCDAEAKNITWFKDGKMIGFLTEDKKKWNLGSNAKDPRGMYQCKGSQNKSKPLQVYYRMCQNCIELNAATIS
The description is as above.

In paper PMC9808371, “Extracellular Galectin 4 Drives Immune Evasion and Promotes T-cell Apoptosis in Pancreatic Cancer” (Cancer Immunology Research, 2022) one finds binding data, which are given here for 1 molecule.

No constants are given. Whether binding was seen depends on the method and setting. Some results given as binding are weak or reduced against the parent protein; the word gives no strength.

B1: human recombinant galectin 4 (natural protein, UniProt P56470 1-323, looked up)
chain: MAYVPAPGYQPTYNPTLPYYQPIPGGLNVGMSVYIQGVASEHMKRFFVNFVVGQDPGSDVAFHFNPRFDGWDKVVFNTLQGGKWGSEERKRSMPFKKGAAFELVFIVLAEHYKVVVNGNPFYEYGHRLPLQMVTHLQVDGDLQLQSINFIGGQPLRPQGPPMMPPYPGPGHCHQQLNSLPTMEGPPTFNPPVPYFGRLQGGLTARRTIIIKGYVPPTGKSFAINFKVGSSGDIALHINPRMGNGTVVRNSLLNGSWGSEEKKITHNPFGPGQFFDLSIRCGLDRFKVYANGQHLFDFAHRLSAFQRVDTLEIQGDVTLSYVQI
notes: galectin 4 (LGALS4), Homo sapiens, cDNA NM_006149.4 recloned from pcDNA3.1-C-(k)DYK into pET-His1a (NcoI + Acc65I); The Hisx6-TEV tag was removed before use; also called gal 4; hgal 4; source: E. coli Rosetta (DE3), purified (NiNTA, tag removal with TEV protease, second NiNTA run); not shown: His6, N-terminal, cleaved
With B1, the binding result in assay [1] and in assay [2] was “binds” throughout.
